This is an account of results in patent publication EP4703387A1.

The assay addresses Macaca fascicularis CD300A (Macaca fascicularis). The assay is described as follows: flow cytometry on Macaca fascicularis PBMCs (monocytes). A general note: A flow cytometer gives signals particle by particle.

These are yes or no findings as the source states them, for the method shown. Binding can be weak; no strength is given.

B1: Antibody NO. 1 (antibody, V domains shown)
VH: EVQLVESGGDLVKPGGSLKLSCAASGFTFSSYGMSWVRQTPDKRLEWVATISSGGSYTYYPDSVKGRFTISRDNAKNTLYLQMSSLKSEDTAMYYCARHGDYGYPWFAYWGQGTLVTVSA
VL: QIVLTQSPAIMSASLGERVTMTCTASSSVSSSYLHWYQQKPGSSPKLWIYSTSNLASGVPARFSGSGSGTSYSLTISSMEAEDAATYYCHQYHRSHTFGGGTKLEIK
As to B1, the binding result is “binds”.
